Laboratory results published in article PMC11876336.
These are yes or no findings as the source states them, for the method shown. Binding seen in cells or lysates may run through a third protein.

The chains behind the UniProt entries cited, without tags or fusion partners.
UniProt Q16665: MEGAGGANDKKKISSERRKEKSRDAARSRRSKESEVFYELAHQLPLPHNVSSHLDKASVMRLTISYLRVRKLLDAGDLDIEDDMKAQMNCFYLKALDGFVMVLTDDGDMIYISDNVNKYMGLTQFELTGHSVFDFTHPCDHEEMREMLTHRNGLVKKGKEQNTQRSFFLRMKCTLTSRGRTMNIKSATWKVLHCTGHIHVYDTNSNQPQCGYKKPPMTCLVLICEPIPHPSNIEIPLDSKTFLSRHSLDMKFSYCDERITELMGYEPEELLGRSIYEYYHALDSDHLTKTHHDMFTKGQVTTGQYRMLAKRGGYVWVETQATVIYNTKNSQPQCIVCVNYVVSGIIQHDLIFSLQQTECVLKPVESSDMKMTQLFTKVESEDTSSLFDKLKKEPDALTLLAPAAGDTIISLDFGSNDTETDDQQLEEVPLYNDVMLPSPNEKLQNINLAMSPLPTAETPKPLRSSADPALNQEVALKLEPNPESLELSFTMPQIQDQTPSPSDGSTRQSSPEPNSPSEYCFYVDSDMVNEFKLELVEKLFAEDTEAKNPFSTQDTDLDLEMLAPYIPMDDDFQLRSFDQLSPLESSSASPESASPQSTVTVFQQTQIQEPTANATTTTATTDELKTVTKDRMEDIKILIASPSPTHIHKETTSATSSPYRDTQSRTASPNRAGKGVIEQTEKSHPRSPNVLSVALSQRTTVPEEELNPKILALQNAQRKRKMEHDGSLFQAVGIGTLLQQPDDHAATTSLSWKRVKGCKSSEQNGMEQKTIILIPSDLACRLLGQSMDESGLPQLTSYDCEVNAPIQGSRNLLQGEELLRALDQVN

Target: hypoxia-inducible factor 1α (human (endogenous in human colon cancer cell lines)) (UniProt Q16665)
Assay: co-IP; whole-cell lysates in IP lysis buffer; Anti-HA magnetic beads or Protein-A/G magnetic beads pre-incubated with anti-HIF1α (anti-IgG as negative control), 30 min at RT; washed with TBS-T or PBS-T; western blot

B1: ONECUT3 (protein, UniProt O60422 1-494)
chain: MELSLESLGGLHSVAHAQAGELLSPGHARSAAAQHRGLVAPGRPGLVAGMASLLDGGGGGGGGGAGGAGGAGSAGGGADFRGELAGPLHPAMGMACEAPGLGGTYTTLTPLQHLPPLAAVADKFHQHAAAAAVAGAHGGHPHAHPHPAAAPPPPPPPQRLAASVSGSFTLMRDERAALASVGHLYGPYGKELPAMGSPLSPLPNALPPALHGAPQPPPPPPPPPLAAYGPPGHLAGDKLLPPAAFEPHAALLGRAEDALARGLPGGGGGTGSGGAGSGSAAGLLAPLGGLAAAGAHGPHGGGGGPGGSGGGPSAGAAAEEINTKEVAQRITAELKRYSIPQAIFAQRILCRSQGTLSDLLRNPKPWSKLKSGRETFRRMWKWLQEPEFQRMSALRLAACKRKEQEQQKERALQPKKQRLVFTDLQRRTLIAIFKENKRPSKEMQVTISQQLGLELNTVSNFFMNARRRCMNRWAEEPSTAPGGPAGATATFSKA
binding: no binding
